Source: patent publication US20220362396A1, “AMINO-PYRAZINECARBOXAMIDE COMPOUNDS, CONJUGATES, AND USES THEREOF” (Silverback Therapeutics, Inc., priority 2018, published 2022)

The chains behind the UniProt entries cited, without tags or fusion partners. Residues count along the entry.
UniProt P37173, 23-567 limits assumed: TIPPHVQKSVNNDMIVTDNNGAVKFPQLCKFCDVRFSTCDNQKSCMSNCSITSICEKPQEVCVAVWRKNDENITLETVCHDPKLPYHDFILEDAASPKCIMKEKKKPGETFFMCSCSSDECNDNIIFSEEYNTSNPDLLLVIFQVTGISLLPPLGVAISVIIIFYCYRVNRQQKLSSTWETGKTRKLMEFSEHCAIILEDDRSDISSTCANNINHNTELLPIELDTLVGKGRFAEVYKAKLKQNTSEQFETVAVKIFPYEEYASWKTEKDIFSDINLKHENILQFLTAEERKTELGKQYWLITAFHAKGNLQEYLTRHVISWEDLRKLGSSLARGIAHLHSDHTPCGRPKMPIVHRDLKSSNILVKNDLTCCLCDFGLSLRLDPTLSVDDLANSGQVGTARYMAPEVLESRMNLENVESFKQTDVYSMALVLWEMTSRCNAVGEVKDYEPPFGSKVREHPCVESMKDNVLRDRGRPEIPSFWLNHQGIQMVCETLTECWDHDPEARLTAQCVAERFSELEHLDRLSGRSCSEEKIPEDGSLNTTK

Tests used:
[1] = tested on: TGFβ/SMAD Signaling Pathway SBE reporter cell line; experiment: TGFβ reporter assay, in vitro small molecule screening (luciferase); settings: read-out: EC50 (reporter assay), TGFβ stimulation, luminescence
Experimental: TGFβ/SMAD Signaling Pathway SBE reporter cell line was obtained from BPS Bioscience. Cells were passed, expanded, and stored in liquid nitrogen as per the supplier's instructions with the exception that growth media is changed to DMEM-C with Geneticin (DMEM supplemented with 10% fetal bovine serum, 1×NEAA, 1 mM Pyruvate, 2 mM glutamine, 50 μg/mL penicillin, 50 U/mL streptomycin and 400 μg/mL of Geneticin). The assay media was MEM supplemented with 0.5% fetal bovine serum, 1×NEAA, 1 mM Pyruvate, 50 μg/mL penicillin and 50 U/mL streptomycin.
Test samples (at desired concentrations diluted in assay media) were added to a 96-well assay plate, 20 μL per well. Reporter cells were harvested from the tissue culture flasks by incubation in small quantity of PBS at 37° C. for two minutes after the media in the flask is removed and cells rinsed with PBS. Cells were counted and diluted in the assay media at approximately 0.5×10^6 cells/mL and then 80 μL/well of cells were added to the assay plate containing the 20 μL/well of test samples (or media only), and incubated for approximately 5-6 hours at 37° C. in a 5% CO2 humidified incubator. […] Luciferase substrate solution is subsequently added at 100 μL per well, incubated in the dark at room temperature for 15 min, and luminescence is measured using a luminometer. […]

TGFBR2 = TGFBR2 (Homo sapiens, UniProt P37173); experiment: TGFBR2 RBC assay (enzyme inhibition assay, Reaction Biology Corp.); settings: read-out: IC50 (enzyme inhibition assay)
Experimental: Compounds of the disclosure were also assayed by Reaction Biology Corp. using the TGFBR2 RBC assay (enzyme inhibition assay). […] NT refers to not tested.

SMILES	EC50 [1]	IC50 (TGFBR2)
Cc1nc(N)c(C(=O)Nc2cnccc2N2CCOCC2)nc1-c1ccc(OCCNC(=O)OCc2ccccc2)cc1	> 1000 nM	> 1000 nM
Nc1ncc(N2CCC(N)CC2)nc1C(=O)Nc1cnccc1N1CCOCC1	> 1000 nM	> 1000 nM

The match of structure and compound is tentative.
